# Data source: PubChem BioAssay AID1259267 (Sanger Institute, 2017)
# Test: 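Kinase and colorectal-mutated gene knock-downs lethal to GP5D cells alone or with drugs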 (primary screen)
# Cell system: human GP5D colorectal cancer cells
# Reagents: siRNA pool against human genes
# Treatment: anchor drugs at low dose: BYL719 1 µM, cetuximab 5 µg/ml, trametinib 10 nM, or DMSO vehicle
# Detection: 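Mean replicate viability versus non-targeting pool, given as knock-down-alone robust z-score, DMSO fraction, and synergy with low-dose BYL719, cetuximab or trametinib (1 µM, 5 µg/ml, 10 nM)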
# Direction: robust z-score, knock-down alone and viability with DMSO: higher = more viable cells; synergy score with trametinib and synergy score with BYL719 and synergy score with cetuximab: higher = stronger synthetic lethal synergy with drug
# Call rule: 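a robust z-score below -3 for the knock-down by itself makes a gene active, i.e. essential alone; synergy scores are ignored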
# Meaning of the calls: active = essential alone; inactive = not essential
# Here is a random part of 794 reagents tested. Of all reagents, 9 (1.1%) are marked active. 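Viability capped at 1; calls reflect loss of viability from knock-down alone, not synergy with drugs.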 No sequences are given here. Not stated in the record: the amount of reagent, the time to read-out.
gene,"robust z-score, knock-down alone",viability with DMSO (fraction of control),synergy score with trametinib,synergy score with BYL719,synergy score with cetuximab,Call
ADCK1,-0.00346,0.826,-0.0596,-0.1,-0.0905,inactive
TRPM7,0.817,1,-0.105,-0.188,-0.142,inactive
IKBKB,-0.897,0.637,0.22,0.0479,-0.0104,inactive
PRKAG1,0.0671,0.841,-0.0604,-0.157,-0.278,inactive
PRKAB2,0.817,1,0.208,0.0666,0.138,inactive
DGKI,0.817,1,-0.119,-0.361,-0.142,inactive
PIK3C3,0.817,1,-0.151,-0.0913,-0.142,inactive
SLK,0.817,1,-0.197,-0.317,-0.142,inactive
KDR,0.817,1,-0.0358,-0.232,-0.142,inactive
EPHA8,0.817,1,-0.176,-0.236,-0.142,inactive
NEK4,0.817,1,0.0158,-0.218,-0.0747,inactive
NPR2,-0.16,0.793,-0.0319,-0.289,-0.171,inactive
PIP4K2C,0.347,0.9,0.244,0.0934,0.154,inactive
MST1R,0.817,1,0.283,0.0196,0.0101,inactive
IDH2,0.0549,0.838,-0.281,-0.29,-0.138,inactive
COMMD3,0.41,0.914,0.0959,-0.0604,0.0407,inactive
GUK1,0.817,1,0.0255,-0.124,0.0255,inactive
TTBK1,-0.715,0.675,-0.149,-0.264,-0.42,inactive
PTPN11,0.592,0.952,-0.0321,-0.256,-0.0439,inactive
ZC3H11A,0.558,0.945,0.204,0.116,0.276,inactive
DLG3,0.773,0.991,0.14,0.0442,0.0143,inactive
KMT2B,-0.381,0.746,0.206,-0.12,-0.126,inactive
PXK,-1.06,0.602,0.122,-0.136,0.109,inactive
PIM1,-0.257,0.772,0.057,-0.112,0.0626,inactive
PRKCB,0.144,0.857,0.229,0.0674,0.0571,inactive
EPHB1,0.817,1,-0.114,-0.144,-0.142,inactive
MAP3K12,0.482,0.929,0.11,-0.0798,-0.0342,inactive
MELK,0.529,0.939,-0.0846,-0.0902,0.107,inactive
RPS6KA3,0.817,1,-0.197,-0.29,-0.142,inactive
PDGFRL,0.817,1,0.00464,-0.138,-0.142,inactive
BUB1,-1.27,0.558,-0.186,-0.42,-0.0858,inactive
WEE1,-2.88,0.217,-0.0212,-0.185,-0.0368,inactive
CRIM1,-1.54,0.5,0.187,-0.143,-0.188,inactive
MAP3K14,-0.709,0.677,-0.326,-0.0958,-0.311,inactive
SOX9,0.144,0.857,-0.0931,-0.439,-0.264,inactive
PEAK1,0.817,1,0.136,0.0758,-0.0722,inactive
IP6K2,-2.09,0.383,-0.218,-0.378,-0.206,inactive
MED12,0.817,1,0.166,0.0118,-0.036,inactive
FBXW7,0.817,1,0.356,-0.32,-0.00145,inactive
TNK2,0.295,0.889,-0.286,-0.302,-0.156,inactive
PRKACG,0.817,1,0.0543,-0.103,-0.066,inactive
DAPK1,0.817,1,0.311,-0.159,-0.00823,inactive
CDKL5,0.817,1,-0.0393,-0.322,0.165,inactive
ETNK2,-0.436,0.735,0.0998,-0.0269,0.0249,inactive
PIP5KL1,0.817,1,-0.13,-0.0709,-0.127,inactive
EIF2AK2,0.817,1,-0.0224,-0.0725,-0.142,inactive
PANK2,-1.38,0.534,-0.1,-0.208,-0.168,inactive
SMAD4,-0.0947,0.807,-0.0579,0.0278,0.083,inactive
BMX,0.705,0.976,0.0107,-0.106,-0.0591,inactive
RAD21,-0.248,0.774,0.0155,0.033,0.0906,inactive
DYRK1B,-1.98,0.408,-0.0436,-0.41,-0.093,inactive
SF3B1,-3.08,0.174,-0.0122,-0.107,-0.0271,active
BCKDK,0.817,1,0.0184,-0.0446,-0.00325,inactive
BRD4,0.698,0.975,0.325,0.0579,0.0766,inactive
MAPK7,0.817,1,-0.168,0.0549,-0.0306,inactive
PRKCA,-1.28,0.556,0.0836,-0.164,-0.418,inactive
TP53RK,0.817,1,0.156,-0.0455,-0.0966,inactive
FCSK,0.817,1,0.018,-0.275,-0.142,inactive
PFKM,-0.402,0.742,0.0947,-0.0438,-0.101,inactive
CDK3,0.817,1,0.352,0.00409,0.151,inactive
PAPSS2,-1.1,0.593,0.163,-0.132,-0.0105,inactive
EPHB4,0.277,0.885,0.0603,-0.2,-0.108,inactive
ACVR1C,0.817,1,-0.0222,0.114,-0.0834,inactive

In a second layout: 9 of the entries above
| gene | robust z-score, knock-down alone | viability with DMSO (fraction of control) | synergy score with trametinib | synergy score with BYL719 | synergy score with cetuximab | Call |
| --- | --- | --- | --- | --- | --- | --- |
| PIP5KL1 | 0.817 | 1 | -0.13 | -0.0709 | -0.127 | inactive |
| EIF2AK2 | 0.817 | 1 | -0.0224 | -0.0725 | -0.142 | inactive |
| PANK2 | -1.38 | 0.534 | -0.1 | -0.208 | -0.168 | inactive |
| SMAD4 | -0.0947 | 0.807 | -0.0579 | 0.0278 | 0.083 | inactive |
| BMX | 0.705 | 0.976 | 0.0107 | -0.106 | -0.0591 | inactive |
| RAD21 | -0.248 | 0.774 | 0.0155 | 0.033 | 0.0906 | inactive |
| DYRK1B | -1.98 | 0.408 | -0.0436 | -0.41 | -0.093 | inactive |
| SF3B1 | -3.08 | 0.174 | -0.0122 | -0.107 | -0.0271 | active |
| BCKDK | 0.817 | 1 | 0.0184 | -0.0446 | -0.00325 | inactive |
